In the supplement of paper PMC6411743:
± gives the standard deviation of the averaged measurements. The list shows a part of the results, in another mix than the full data. Most entries show no effect beyond the scatter of the controls.

Protein sequences, listed by entry. Tags and fused reporters are not part of them. Lines headed by an entry give the natural chain unless they say otherwise; changes in a name come on top.
UniProt Q96GD0: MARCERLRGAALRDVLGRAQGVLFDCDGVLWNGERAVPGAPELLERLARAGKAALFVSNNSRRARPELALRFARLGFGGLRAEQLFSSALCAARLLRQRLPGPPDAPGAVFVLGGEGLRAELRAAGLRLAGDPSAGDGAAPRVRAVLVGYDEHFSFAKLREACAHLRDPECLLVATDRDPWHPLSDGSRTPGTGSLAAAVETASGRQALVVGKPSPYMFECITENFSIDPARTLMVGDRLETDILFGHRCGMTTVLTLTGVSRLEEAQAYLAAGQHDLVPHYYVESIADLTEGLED
UniProt Q96CN4: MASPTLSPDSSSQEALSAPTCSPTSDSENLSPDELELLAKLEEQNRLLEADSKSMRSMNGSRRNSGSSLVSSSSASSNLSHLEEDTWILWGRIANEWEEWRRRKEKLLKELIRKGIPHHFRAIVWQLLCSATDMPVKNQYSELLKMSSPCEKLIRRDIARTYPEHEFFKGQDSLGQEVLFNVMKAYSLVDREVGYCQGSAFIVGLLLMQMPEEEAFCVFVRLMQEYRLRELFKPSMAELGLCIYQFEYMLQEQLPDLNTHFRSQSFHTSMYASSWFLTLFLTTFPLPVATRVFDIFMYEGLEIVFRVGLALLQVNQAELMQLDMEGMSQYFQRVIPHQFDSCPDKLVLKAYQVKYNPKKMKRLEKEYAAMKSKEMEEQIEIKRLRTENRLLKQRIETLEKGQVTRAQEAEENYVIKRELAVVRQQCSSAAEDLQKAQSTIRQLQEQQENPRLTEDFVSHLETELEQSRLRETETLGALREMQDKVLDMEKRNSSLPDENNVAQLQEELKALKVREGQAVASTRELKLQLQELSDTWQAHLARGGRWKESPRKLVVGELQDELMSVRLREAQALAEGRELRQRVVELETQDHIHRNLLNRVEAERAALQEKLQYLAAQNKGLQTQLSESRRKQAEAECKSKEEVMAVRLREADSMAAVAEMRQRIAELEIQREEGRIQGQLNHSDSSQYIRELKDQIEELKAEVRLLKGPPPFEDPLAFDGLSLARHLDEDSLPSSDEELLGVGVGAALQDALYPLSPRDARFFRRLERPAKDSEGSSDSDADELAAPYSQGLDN
UniProt Q96PM5: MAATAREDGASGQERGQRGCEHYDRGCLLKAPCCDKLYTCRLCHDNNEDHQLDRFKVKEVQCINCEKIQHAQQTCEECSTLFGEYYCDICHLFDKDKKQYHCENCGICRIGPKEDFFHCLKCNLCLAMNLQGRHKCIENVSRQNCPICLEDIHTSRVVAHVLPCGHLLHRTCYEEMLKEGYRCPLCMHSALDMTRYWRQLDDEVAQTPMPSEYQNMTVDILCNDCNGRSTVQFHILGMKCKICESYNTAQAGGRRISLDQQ
UniProt Q96GN5: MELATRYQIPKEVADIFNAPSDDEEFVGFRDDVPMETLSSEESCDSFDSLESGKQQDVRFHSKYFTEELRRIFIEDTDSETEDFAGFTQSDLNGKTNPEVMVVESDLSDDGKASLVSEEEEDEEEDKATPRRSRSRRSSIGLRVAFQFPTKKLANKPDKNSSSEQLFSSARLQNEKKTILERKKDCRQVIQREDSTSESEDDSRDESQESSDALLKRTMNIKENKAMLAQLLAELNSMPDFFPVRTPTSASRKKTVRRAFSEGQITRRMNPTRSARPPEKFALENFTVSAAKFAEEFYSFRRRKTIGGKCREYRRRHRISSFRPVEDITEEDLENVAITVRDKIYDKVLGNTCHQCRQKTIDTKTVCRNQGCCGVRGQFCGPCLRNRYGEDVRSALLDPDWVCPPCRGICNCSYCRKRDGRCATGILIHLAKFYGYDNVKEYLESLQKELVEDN
UniProt Q96JK2, whole entry: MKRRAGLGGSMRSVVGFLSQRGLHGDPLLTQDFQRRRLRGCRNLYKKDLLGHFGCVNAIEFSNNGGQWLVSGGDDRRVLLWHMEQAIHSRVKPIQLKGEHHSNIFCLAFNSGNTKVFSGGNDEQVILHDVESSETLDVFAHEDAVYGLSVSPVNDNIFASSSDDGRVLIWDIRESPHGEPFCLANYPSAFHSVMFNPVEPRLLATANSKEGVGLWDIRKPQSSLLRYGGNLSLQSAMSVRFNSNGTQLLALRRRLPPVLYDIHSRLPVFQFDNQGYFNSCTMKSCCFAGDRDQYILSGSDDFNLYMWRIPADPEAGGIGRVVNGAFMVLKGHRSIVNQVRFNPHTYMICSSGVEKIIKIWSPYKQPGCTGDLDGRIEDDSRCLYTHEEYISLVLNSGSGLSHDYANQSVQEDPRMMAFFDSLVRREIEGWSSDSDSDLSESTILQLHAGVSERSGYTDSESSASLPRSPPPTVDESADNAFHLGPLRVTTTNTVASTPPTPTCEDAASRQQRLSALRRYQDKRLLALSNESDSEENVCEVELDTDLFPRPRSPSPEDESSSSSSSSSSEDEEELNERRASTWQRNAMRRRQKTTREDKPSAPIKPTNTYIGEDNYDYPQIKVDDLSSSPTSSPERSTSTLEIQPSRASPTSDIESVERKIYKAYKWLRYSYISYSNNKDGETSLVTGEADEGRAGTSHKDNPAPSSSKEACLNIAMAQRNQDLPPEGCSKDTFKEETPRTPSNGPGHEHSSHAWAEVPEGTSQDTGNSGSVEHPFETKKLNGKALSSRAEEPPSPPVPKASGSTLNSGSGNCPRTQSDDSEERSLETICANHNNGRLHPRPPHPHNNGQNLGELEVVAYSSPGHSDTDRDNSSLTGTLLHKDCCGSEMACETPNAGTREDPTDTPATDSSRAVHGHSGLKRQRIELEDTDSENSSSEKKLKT
UniProt Q969M7: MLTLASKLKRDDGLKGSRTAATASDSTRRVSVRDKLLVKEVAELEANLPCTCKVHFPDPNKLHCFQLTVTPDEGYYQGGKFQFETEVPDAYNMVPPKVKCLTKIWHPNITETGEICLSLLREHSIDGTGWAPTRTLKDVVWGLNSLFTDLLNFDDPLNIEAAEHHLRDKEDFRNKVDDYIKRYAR
UniProt Q96F44: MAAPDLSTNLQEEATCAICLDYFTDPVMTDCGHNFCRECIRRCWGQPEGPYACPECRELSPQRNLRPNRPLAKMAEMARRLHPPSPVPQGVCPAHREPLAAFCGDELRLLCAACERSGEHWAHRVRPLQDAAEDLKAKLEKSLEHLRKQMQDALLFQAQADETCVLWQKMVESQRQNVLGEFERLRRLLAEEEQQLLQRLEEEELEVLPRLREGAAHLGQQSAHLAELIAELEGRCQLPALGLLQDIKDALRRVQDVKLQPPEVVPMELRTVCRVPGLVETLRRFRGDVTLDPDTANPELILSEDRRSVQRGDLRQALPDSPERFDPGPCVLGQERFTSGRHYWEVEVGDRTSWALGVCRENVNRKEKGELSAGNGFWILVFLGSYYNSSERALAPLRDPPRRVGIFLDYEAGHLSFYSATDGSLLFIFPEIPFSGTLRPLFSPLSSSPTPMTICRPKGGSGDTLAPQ
UniProt Q96CU9: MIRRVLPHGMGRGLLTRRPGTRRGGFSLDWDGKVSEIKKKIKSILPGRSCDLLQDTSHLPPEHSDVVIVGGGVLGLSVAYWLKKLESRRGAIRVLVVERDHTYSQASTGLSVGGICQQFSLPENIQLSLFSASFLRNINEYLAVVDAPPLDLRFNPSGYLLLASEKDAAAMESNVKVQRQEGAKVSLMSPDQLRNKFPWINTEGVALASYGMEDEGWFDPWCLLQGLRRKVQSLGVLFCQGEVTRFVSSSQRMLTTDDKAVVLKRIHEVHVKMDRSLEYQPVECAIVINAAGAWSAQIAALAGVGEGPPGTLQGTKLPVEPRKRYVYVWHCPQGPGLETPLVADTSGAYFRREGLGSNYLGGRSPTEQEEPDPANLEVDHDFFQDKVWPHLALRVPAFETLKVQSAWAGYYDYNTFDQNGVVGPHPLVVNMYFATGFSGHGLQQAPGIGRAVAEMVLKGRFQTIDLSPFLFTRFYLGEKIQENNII
UniProt Q96EX1: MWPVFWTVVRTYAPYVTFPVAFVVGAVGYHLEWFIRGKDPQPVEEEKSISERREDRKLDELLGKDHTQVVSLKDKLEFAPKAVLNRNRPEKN
UniProt Q969E8: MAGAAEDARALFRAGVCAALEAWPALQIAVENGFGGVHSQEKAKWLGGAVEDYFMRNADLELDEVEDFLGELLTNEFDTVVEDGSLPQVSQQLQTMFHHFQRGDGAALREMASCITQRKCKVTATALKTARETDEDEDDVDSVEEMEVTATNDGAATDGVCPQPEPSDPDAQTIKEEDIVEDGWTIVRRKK
UniProt Q96IU4: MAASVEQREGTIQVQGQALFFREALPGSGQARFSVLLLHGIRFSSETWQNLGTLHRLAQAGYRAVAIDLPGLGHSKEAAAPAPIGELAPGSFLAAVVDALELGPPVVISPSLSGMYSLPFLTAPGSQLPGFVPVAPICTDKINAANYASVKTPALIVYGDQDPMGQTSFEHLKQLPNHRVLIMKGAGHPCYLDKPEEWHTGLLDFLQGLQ
UniProt Q96E09: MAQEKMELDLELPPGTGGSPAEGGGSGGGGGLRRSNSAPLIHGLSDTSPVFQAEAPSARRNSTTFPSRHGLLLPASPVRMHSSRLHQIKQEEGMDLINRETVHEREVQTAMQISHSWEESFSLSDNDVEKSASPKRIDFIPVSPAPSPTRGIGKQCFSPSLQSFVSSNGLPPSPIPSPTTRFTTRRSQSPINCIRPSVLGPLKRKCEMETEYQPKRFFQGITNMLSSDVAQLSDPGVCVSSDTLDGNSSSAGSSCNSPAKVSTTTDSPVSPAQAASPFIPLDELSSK
UniProt Q96H20: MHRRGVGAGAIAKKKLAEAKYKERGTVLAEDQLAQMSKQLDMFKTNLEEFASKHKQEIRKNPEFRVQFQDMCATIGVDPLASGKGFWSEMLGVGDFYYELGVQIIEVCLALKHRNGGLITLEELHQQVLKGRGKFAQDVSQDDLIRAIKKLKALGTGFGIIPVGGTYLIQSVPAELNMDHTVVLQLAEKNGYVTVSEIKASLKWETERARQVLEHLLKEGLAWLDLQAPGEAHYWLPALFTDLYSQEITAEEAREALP
UniProt Q96JB2: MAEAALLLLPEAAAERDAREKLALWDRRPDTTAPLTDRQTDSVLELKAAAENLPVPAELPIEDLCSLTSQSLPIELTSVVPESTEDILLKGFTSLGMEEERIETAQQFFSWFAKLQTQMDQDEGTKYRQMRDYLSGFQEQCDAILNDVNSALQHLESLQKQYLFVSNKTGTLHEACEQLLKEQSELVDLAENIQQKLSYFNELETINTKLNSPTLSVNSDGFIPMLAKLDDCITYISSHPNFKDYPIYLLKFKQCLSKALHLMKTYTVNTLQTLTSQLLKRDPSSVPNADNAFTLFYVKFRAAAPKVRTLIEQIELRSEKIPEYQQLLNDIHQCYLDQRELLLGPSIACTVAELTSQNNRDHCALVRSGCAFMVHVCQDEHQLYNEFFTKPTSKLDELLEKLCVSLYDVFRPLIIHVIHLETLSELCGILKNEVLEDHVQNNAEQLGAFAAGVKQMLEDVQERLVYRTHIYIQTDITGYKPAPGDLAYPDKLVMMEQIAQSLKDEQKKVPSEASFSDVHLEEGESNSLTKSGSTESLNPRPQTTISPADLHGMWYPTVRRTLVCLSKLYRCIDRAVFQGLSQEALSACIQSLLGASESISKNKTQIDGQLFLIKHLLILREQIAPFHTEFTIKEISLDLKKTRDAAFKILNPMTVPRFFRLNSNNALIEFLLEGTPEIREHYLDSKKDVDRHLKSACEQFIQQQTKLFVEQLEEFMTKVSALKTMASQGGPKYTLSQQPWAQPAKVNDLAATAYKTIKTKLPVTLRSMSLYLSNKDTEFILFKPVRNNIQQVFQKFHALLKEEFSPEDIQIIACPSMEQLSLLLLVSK
UniProt Q96K31: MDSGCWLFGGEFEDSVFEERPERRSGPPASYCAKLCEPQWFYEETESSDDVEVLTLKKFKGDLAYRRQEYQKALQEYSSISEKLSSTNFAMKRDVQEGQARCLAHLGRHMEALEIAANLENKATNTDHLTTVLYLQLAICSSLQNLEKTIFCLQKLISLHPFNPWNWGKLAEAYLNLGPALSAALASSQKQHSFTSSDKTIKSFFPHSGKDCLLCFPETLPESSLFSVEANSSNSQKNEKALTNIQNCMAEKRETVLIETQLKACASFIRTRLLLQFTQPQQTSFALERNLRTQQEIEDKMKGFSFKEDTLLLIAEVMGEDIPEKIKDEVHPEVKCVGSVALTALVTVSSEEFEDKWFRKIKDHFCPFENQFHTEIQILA
UniProt Q96BW9: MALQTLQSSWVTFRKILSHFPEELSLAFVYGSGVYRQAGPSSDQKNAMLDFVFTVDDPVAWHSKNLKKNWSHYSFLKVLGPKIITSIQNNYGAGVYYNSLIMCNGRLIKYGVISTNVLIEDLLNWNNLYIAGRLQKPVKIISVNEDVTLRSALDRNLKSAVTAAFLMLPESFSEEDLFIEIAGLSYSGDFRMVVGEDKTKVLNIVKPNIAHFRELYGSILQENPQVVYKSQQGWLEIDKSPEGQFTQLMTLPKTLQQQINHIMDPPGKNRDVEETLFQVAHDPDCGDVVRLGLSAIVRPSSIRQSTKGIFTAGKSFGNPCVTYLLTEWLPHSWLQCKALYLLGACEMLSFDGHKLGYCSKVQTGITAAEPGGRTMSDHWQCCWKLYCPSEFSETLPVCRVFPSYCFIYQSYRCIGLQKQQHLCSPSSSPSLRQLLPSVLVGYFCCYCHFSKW

compound: Nc1ncnc2c1ncn2[C@@H]1O[C@H](COP(=O)(O)OP(=O)(O)NP(=O)(O)O)[C@@H](O)[C@H]1O [adenylyl imidodiphosphate]; test: NP40-soluble protein abundance relative to vehicle (solubility fold change) (ratio); higher = more soluble protein in presence of AMP-PNP; conditions: concentration: 0.1mM
Procedure, shortened: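 In three independent experiments, Jurkat crude lysate made by Dounce homogenisation was treated for 10 min at room temperature and then 3 min at 37 °C with eight concentrations ranging from 0.1 to 10 mM. It was then solubilised with 0.8% NP40 plus benzonase for 60 min at 4 °C and ultracentrifuged. The supernatant was TMT-labelled for LC-MS/MS, and each value is the fold change against the detergent-processed vehicle for the same replicate, using vsn-normalised intensities.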

Target | NP40-soluble protein abundance
PDXP (UniProt Q96GD0) | 1.004 ± 0.0081
UniProt Q96CN4 and related entries | 1 ± 0.011
RCHY1 (UniProt Q96PM5) | 0.994 ± 0.017
UniProt Q96GN5 and related entries | 0.989 ± 0.032
UniProt Q96JK2 and related entries | 0.995 ± 0.014
UniProt Q969M7 and related entries | 0.989 ± 0.029
UniProt Q96F44 and related entries | 1.02 ± 0.024
UniProt Q96CU9 and related entries | 1.03 ± 0.027
UniProt Q96EX1 | 0.925 ± 0.023
TSR2 (UniProt Q969E8) | 0.972 ± 0.022
ABHD14B (UniProt Q96IU4) | 0.988 ± 0.01
FAM122A (UniProt Q96E09) | 0.98 ± 0.011
ISOC1 (UniProt Q96CN7) | 1.01 ± 0.024
EAF1 (UniProt Q96JC9) | 0.967 ± 0.035
UniProt Q96L93 and related entries | 0.986 ± 0.034
SNF8 (UniProt Q96H20) | 0.977 ± 0.023
UniProt Q969S9 and related entries | 1.02 ± 0.028
NTAN1 (UniProt Q96AB6) | 1 ± 0.012
UniProt Q96L50 | 1 ± 0.036
UniProt Q96L92 and related entries | 1.02 ± 0.021
CHMP6 (UniProt Q96FZ7) | 1 ± 0.02
UniProt Q96B01 and related entries | 1 ± 0.029
COG3 (UniProt Q96JB2) | 1 ± 0.035
RBM33 (UniProt Q96EV2) | 1 ± 0.024
ZNF512B (UniProt Q96KM6) | 0.981 ± 0.024
C8orf76 (UniProt Q96K31) | 1.02 ± 0.028
UniProt Q96BW9 and related entries | 1.03 ± 0.017

Nothing new here: entries from further up.
Target | NP40-soluble protein abundance
UniProt Q96JK2 and related entries | 0.995 ± 0.014
UniProt Q969M7 and related entries | 0.989 ± 0.029
